Experimental data: PubChem BioAssay AID1224830 (NIAID, 2016)
This is an unselected part of about 18,000 reagents. About 2,900 of all reagents (16%) were called active. 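Calls are made per well; low scores hint the gene aids the LPS response, high scores that it dampens it.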 A number with no mark means an inactive call. Repeated entries: four replicate wells of each siRNA pool. Reagent sequences are not shown.

Screen: 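Regulators of TLR4 signalling towards TNF-alpha in macrophage-like cells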 (primary screen)
Cells: human THP-1 monocytic leukaemia cells, TNF dual-luciferase reporter clone, PMA-differentiated to macrophage-like cells
Reagents: siRNA pool against human genes, 50 nM
Time to read-out: LPS for 4 h, given about 3 days after siRNA transfection
Challenge: bacterial LPS (TLR4 ligand), 10 ng/ml
Read-out: 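Ratio of firefly to renilla light, scaled to the plate median and expressed as a robust z-score per replicate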
Scale: TNF reporter robust z-score: higher = stronger TNF reporter response to LPS
Call rule: 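a well is active when its z-score exceeds 2.8 or falls below -1.5; control wells carry no call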

Gene,TNF reporter robust z-score
LRIG1 (leucine rich repeats and immunoglobulin like domains 1),-0.78
LRIG1 (leucine rich repeats and immunoglobulin like domains 1),-0.67
LRIG1 (leucine rich repeats and immunoglobulin like domains 1),-0.53
LRIG1 (leucine rich repeats and immunoglobulin like domains 1),-0.87
TRIM55 (tripartite motif containing 55),0.08
TRIM55 (tripartite motif containing 55),-0.65
TRIM55 (tripartite motif containing 55),0.41
TRIM55 (tripartite motif containing 55),1.5
KRABD3 (KRAB domain containing 3),-0.73
KRABD3 (KRAB domain containing 3),-0.3
KRABD3 (KRAB domain containing 3),-0.07
KRABD3 (KRAB domain containing 3),-1.01
EDNRB (endothelin receptor type B),-0.66
EDNRB (endothelin receptor type B),-0.14
EDNRB (endothelin receptor type B),-0.55
EDNRB (endothelin receptor type B),0.38
GALE (UDP-galactose-4-epimerase),0.14
GALE (UDP-galactose-4-epimerase),-0.31
GALE (UDP-galactose-4-epimerase),0.61
GALE (UDP-galactose-4-epimerase),1.07
OR52L1 (olfactory receptor family 52 subfamily L member 1),-0.16
OR52L1 (olfactory receptor family 52 subfamily L member 1),0.22
OR52L1 (olfactory receptor family 52 subfamily L member 1),0.03
OR52L1 (olfactory receptor family 52 subfamily L member 1),0.3
DCLK3 (doublecortin like kinase 3),2.13
DCLK3 (doublecortin like kinase 3),1.62
DCLK3 (doublecortin like kinase 3),1.03
DCLK3 (doublecortin like kinase 3),1.08
EXOSC3 (exosome component 3),-1.52 (active)
EXOSC3 (exosome component 3),-0.82
EXOSC3 (exosome component 3),-0.6
EXOSC3 (exosome component 3),-0.17
NAT16 (N-acetyltransferase 16 (putative)),1.09
NAT16 (N-acetyltransferase 16 (putative)),0.41
NAT16 (N-acetyltransferase 16 (putative)),1.05
NAT16 (N-acetyltransferase 16 (putative)),1.51
CYBA (cytochrome b-245 alpha chain),-0.23
CYBA (cytochrome b-245 alpha chain),0.6
CYBA (cytochrome b-245 alpha chain),1.82
CYBA (cytochrome b-245 alpha chain),2.91 (active)
SYMPK (symplekin scaffold protein),-0.96
SYMPK (symplekin scaffold protein),0.02
SYMPK (symplekin scaffold protein),-0.72
SYMPK (symplekin scaffold protein),1.19
SIRAL2 (SIR2 antiphage like 2),1.15
SIRAL2 (SIR2 antiphage like 2),2.26
SIRAL2 (SIR2 antiphage like 2),2.36
SIRAL2 (SIR2 antiphage like 2),3.25 (active)
FHDC1 (FH2 domain containing 1),-0.4
FHDC1 (FH2 domain containing 1),-0.63
FHDC1 (FH2 domain containing 1),-0.05
FHDC1 (FH2 domain containing 1),0.26
SUB1 (SUB1 regulator of transcription),-0.37
SUB1 (SUB1 regulator of transcription),0.12
SUB1 (SUB1 regulator of transcription),-0.25
SUB1 (SUB1 regulator of transcription),0.6
ELL2 (elongation factor for RNA polymerase II 2),-0.25
ELL2 (elongation factor for RNA polymerase II 2),-0.01
ELL2 (elongation factor for RNA polymerase II 2),0.11
ELL2 (elongation factor for RNA polymerase II 2),1.08
TRIM44 (TRIM family member 44),1.39
TRIM44 (TRIM family member 44),1.85
TRIM44 (TRIM family member 44),0.06
TRIM44 (TRIM family member 44),0.29
NKX2-1 (NK2 homeobox 1),-1.13
NKX2-1 (NK2 homeobox 1),-1.01
NKX2-1 (NK2 homeobox 1),-1.6 (active)
NKX2-1 (NK2 homeobox 1),-1
EIF1B (eukaryotic translation initiation factor 1B),-0.58
EIF1B (eukaryotic translation initiation factor 1B),0.16
EIF1B (eukaryotic translation initiation factor 1B),-0.72
EIF1B (eukaryotic translation initiation factor 1B),-0.05
TUBB3 (tubulin beta 3 class III),-0.68
TUBB3 (tubulin beta 3 class III),0.27
TUBB3 (tubulin beta 3 class III),-0.23
TUBB3 (tubulin beta 3 class III),0.1
SLC35B1,-0.4
SLC35B1,-0.43
SLC35B1,0.19
SLC35B1,1.37
AMFR (autocrine motility factor receptor),0.15
AMFR (autocrine motility factor receptor),0.48
AMFR (autocrine motility factor receptor),1.3
AMFR (autocrine motility factor receptor),0.19
NAALADL2 (N-acetylated alpha-linked acidic dipeptidase like 2),0.73
NAALADL2 (N-acetylated alpha-linked acidic dipeptidase like 2),2.98 (active)
NAALADL2 (N-acetylated alpha-linked acidic dipeptidase like 2),3.14 (active)
NAALADL2 (N-acetylated alpha-linked acidic dipeptidase like 2),0.02
PRR34 (PRR34 long non-coding RNA),-0.88
PRR34 (PRR34 long non-coding RNA),-0.05
PRR34 (PRR34 long non-coding RNA),-0.79
PRR34 (PRR34 long non-coding RNA),-1.33
RPH3AL (rabphilin 3A like (without C2 domains)),-1.06
RPH3AL (rabphilin 3A like (without C2 domains)),-0.64
RPH3AL (rabphilin 3A like (without C2 domains)),-1.24
RPH3AL (rabphilin 3A like (without C2 domains)),-0.56
ABCE1 (ATP binding cassette subfamily E member 1),0.24
ABCE1 (ATP binding cassette subfamily E member 1),-0.23
ABCE1 (ATP binding cassette subfamily E member 1),0.63
ABCE1 (ATP binding cassette subfamily E member 1),0.61
NCKAP5 (NCK associated protein 5),-0.94
NCKAP5 (NCK associated protein 5),-0.28
NCKAP5 (NCK associated protein 5),-0.48
NCKAP5 (NCK associated protein 5),-0.03
CSF3R (colony stimulating factor 3 receptor),-0.05
CSF3R (colony stimulating factor 3 receptor),1.15
CSF3R (colony stimulating factor 3 receptor),1.3
CSF3R (colony stimulating factor 3 receptor),0.26
NCAPG2 (non-SMC condensin II complex subunit G2),0.24
NCAPG2 (non-SMC condensin II complex subunit G2),5.46 (active)
NCAPG2 (non-SMC condensin II complex subunit G2),8.3 (active)
NCAPG2 (non-SMC condensin II complex subunit G2),0.88
AKR1C4 (aldo-keto reductase family 1 member C4),1.52
AKR1C4 (aldo-keto reductase family 1 member C4),1.85
AKR1C4 (aldo-keto reductase family 1 member C4),0.35
AKR1C4 (aldo-keto reductase family 1 member C4),-0.71
NCMAP (non-compact myelin associated protein),-0.47
NCMAP (non-compact myelin associated protein),-0.88
NCMAP (non-compact myelin associated protein),-0.26
NCMAP (non-compact myelin associated protein),0.49
ZDHHC20 (zDHHC palmitoyltransferase 20),4.7 (active)
ZDHHC20 (zDHHC palmitoyltransferase 20),-0.45
ZDHHC20 (zDHHC palmitoyltransferase 20),0.44
ZDHHC20 (zDHHC palmitoyltransferase 20),-0.37
KIF12 (kinesin family member 12),0.52
KIF12 (kinesin family member 12),1.63
KIF12 (kinesin family member 12),0.07
KIF12 (kinesin family member 12),1.22
XPO7 (exportin 7),-0.39
XPO7 (exportin 7),-1.01
XPO7 (exportin 7),-0.17
XPO7 (exportin 7),0.55
MTX2 (metaxin 2),-1.41
MTX2 (metaxin 2),-0.54
MTX2 (metaxin 2),-0.6
MTX2 (metaxin 2),0.6
"GIMAP6 (GTPase, IMAP family member 6)",-0.38
"GIMAP6 (GTPase, IMAP family member 6)",-0.24
"GIMAP6 (GTPase, IMAP family member 6)",-0.5
"GIMAP6 (GTPase, IMAP family member 6)",0.65

Targets listed so far whose target name starts with T or t:
Gene,TNF reporter robust z-score
TRIM55 (tripartite motif containing 55),0.08
TRIM55 (tripartite motif containing 55),-0.65
TRIM55 (tripartite motif containing 55),0.41
TRIM55 (tripartite motif containing 55),1.5
TRIM44 (TRIM family member 44),1.39
TRIM44 (TRIM family member 44),1.85
TRIM44 (TRIM family member 44),0.06
TRIM44 (TRIM family member 44),0.29
TUBB3 (tubulin beta 3 class III),-0.68
TUBB3 (tubulin beta 3 class III),0.27
TUBB3 (tubulin beta 3 class III),-0.23
TUBB3 (tubulin beta 3 class III),0.1
